Measured values: patent publication US20250303359A1, “COMPOUNDS AND METHODS FOR SAFE MITIGATION OF OCEAN ACIDIFICATION AND CAPTURE OF ATMOSPHERIC CARBON DIOXIDE” (Negative Emissions Materials, Inc., priority 2022, published 2025)

[Mg+2].[OH-].[OH-] [Mg(OH)2, magnesium hydroxide]
CO2 consumption (or alkalinity increase) per mol of Mg(OH)2 added (1-6 days, 1-3 L, deep local seawater, 400 ppm pCO2, 22 °C): approximately 1.5 mol
time by which full CO2 uptake effect occurred (concentrations within ecosystem safety limits): ≤ 6 days
